Measurements published in PubChem BioAssay AID2551 (National Center for Advancing Translational Sciences (NCATS), 2010).
In all, about 310,000 compounds went through this assay and about 17,000 (5.5%) were called active. The inconclusive results got no clear call from the source; some entries with a clear call stand among them for comparison. Calls come from the whole dose curve; as a rule, active = well fitted inhibition curve with a large enough effect; inconclusive = small, poorly fitted or top-dose-only effect, or effect the other way; inactive = no such curve, though single readings can be large or run the other way. Potencies of inconclusive entries are doubtful fits and often do not repeat.

The chains behind the UniProt entries cited, without tags or fusion partners. Where a name states a change or a piece, a line headed by the entry shows the natural chain unless it says otherwise.
UniProt P51450: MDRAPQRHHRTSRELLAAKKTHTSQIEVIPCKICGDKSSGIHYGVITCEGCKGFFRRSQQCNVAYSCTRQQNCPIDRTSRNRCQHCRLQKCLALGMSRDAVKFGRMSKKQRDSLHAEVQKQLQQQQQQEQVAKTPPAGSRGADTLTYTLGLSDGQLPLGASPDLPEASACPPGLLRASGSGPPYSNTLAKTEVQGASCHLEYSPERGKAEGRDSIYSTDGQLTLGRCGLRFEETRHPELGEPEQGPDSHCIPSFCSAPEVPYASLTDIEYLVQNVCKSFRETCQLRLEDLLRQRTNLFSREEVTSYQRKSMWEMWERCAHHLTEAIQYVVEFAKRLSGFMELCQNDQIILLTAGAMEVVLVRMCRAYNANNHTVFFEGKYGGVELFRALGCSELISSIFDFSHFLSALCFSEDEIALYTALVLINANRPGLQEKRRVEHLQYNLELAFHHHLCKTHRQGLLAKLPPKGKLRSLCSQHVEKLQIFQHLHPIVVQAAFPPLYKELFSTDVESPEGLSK

Molecular target: Nuclear receptor ROR-gamma (Mus musculus) (UniProt P51450)
Experiment: qHTS for inhibitors of ROR gamma transcriptional activity; note: nearly all actives have a fitted effect of over 60% in size
Conditions: Drosophila S2 Gal4-RORgamma UAS-luciferase reporter, 20 h; activity change, negative = inhibition: at 53.6 µM (top of the series)
Method in brief: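 Luminescence from a UAS-regulated Photinus luciferase reporter in stably transfected Drosophila Schneider cells is measured; decreased signal marks ROR gamma inhibition. Fusion expression is induced by 700 uM copper sulfate for 20 hr.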
% is set by controls: 0 for no effect and ±100 for the full control effect; potency is the fitted concentration of half-maximal effect.

| Compound | Potency | activity change, negative = inhibition |
| --- | --- | --- |
| O=C1C(C2=NC(c3ccccn3)C3C(=O)N(c4ccccc4)C(=O)C23)=C(O)c2ccccc21 (stereo not drawn) | inconclusive: 22.4 µM [inhibitor, single point] |  |
| Cc1ccc(S(=O)(=O)N2CCCC(C(=O)NCc3cccnc3)C2)cc1Cl (stereo not drawn) | inconclusive: 28.2 µM [activator, single point] |  |
| CN(C)C(CNC(=S)Nc1ccc(F)cc1)c1cccnc1 (stereo not drawn) |  | inactive: -7.52% |
| COc1ccc(CCNC(=O)CSc2nc3[nH]ncc3c(=O)n2-c2ccc(C)c(Cl)c2)cc1OC | inconclusive: 35.5 µM [activator, single point] |  |
| Cc1cc(NS(=O)(=O)c2ccc(NC(=S)NC(=O)c3ccc(C(C)(C)C)cc3)cc2)no1 | inconclusive: 15.8 µM [activator, partial curve] |  |
| CCOc1ccc(NC(=O)CN2CCN(C3c4ccccc4-c4ccccc43)CC2)cc1 | inconclusive: 12.6 µM [activator, single point] |  |
| CCOC(=O)c1c(N=CN(C)C)c(C#N)c2n1CCCC2 | inconclusive: 8.91 µM [activator, single point] |  |
| O=C(CCc1ccccc1)Nc1ccccc1F |  | inactive: 3.01% |
| Nc1nncn1C(=O)c1c(Cl)cccc1Cl | inconclusive: 35.5 µM [inhibitor, single point] |  |
| CCOC(=O)c1sc(NC(=O)CSc2nc3cccnc3n2C)nc1C |  | inactive: -0.0413% |
| COc1ccc(S(=O)(=O)NC(C)C(=O)N2CCCC2)cc1C (stereo not drawn) | inconclusive: 12.6 µM [inhibitor, partial curve, poor fit] |  |
| CCN1CCN(Cc2ccc(NC(=O)c3cc(NC(=O)c4cnn(-c5ccccc5)c4N)cc(OC)c3)cc2C(F)(F)F)CC1 |  | inactive: -40.1% |
| COc1ccccc1/C=N/NC(=O)CCSc1ccccc1 |  | inactive: -35.8% |
| COc1ccc(C)cc1-n1nnnc1SC/C(O)=C(\C#N)c1nc2ccccc2[nH]1 | active: 12.6 µM |  |
| CCOC(=O)c1nnn(CC(=O)N2N=C(c3cc(C)ccc3C)CC2c2ccc(OC)cc2)c1C(=O)OCC (stereo not drawn) |  | inactive: -15.1% |
| COc1ccc(OC2CCN(S(=O)(=O)c3ccc(F)cc3)CC2)cc1 | inconclusive: 11.2 µM [activator, partial curve] |  |
| CCOCCCNC(=O)c1oc2ccc3c(c2c1C)C(O)CC(C)(C)O3 (stereo not drawn) |  | inactive: 2% |
| CC(=O)c1cccc(NC(=S)NCCc2ccc(F)cc2)c1 | inconclusive: 25.1 µM [inhibitor, single point] |  |
| COc1cccc(/C=N/Nc2cc(Cl)nc(C)n2)c1O | active: 0.501 µM |  |
| Cc1cccc(C(=O)NNC(=S)NC(=O)c2cccs2)c1 | inconclusive: 2.24 µM [inhibitor, full curve] |  |
| CC(=O)N(C)c1ccc(N=Nc2c(C)[nH]n(C(N)=S)c2=O)cc1 | active: 0.355 µM |  |
| CCCc1cc(C(=O)Nc2cc(OC)ccc2OC)cs1 | inconclusive: 10 µM [activator, partial curve] |  |
| COCC(=O)NCCNc1nc2ccc(C)cc2cc1C |  | inactive: -19.8% |
| O=C(O)C(c1ccccc1)N1C(=O)c2ccccc2C1=O (stereo not drawn) |  | inactive: -34.6% |

| Compound | Potency | activity change, negative = inhibition |
| --- | --- | --- |
| COc1ccc(C(=O)/C=C/c2ccc(OC(=O)c3cc(OC)c(OC)c(OC)c3)cc2)cc1 | active: 1.78 µM |  |
| CCOC(=O)C(NC(=O)c1ccccc1Cl)(Nc1ccc(C(F)(F)F)cc1)C(F)(F)F (stereo not drawn) |  | inactive: -3% |
| Cc1ccc(N2C(=S)NC3c4ccccc4OC2(C)C3C(=O)N(C)C)cc1 (stereo not drawn) | inconclusive: 17.8 µM [inhibitor, single point] |  |
| COc1cccc(C(=O)/C=C/Nc2ccc(NC(C)=O)cc2)c1 | inconclusive: 1.78 µM [activator, full curve, poor fit] |  |
| COc1ccc(C(=O)C2CCN(C(=O)c3ccc(F)cc3)CC2)cc1 | inconclusive: 12.6 µM [activator, single point] |  |
| CC(NC(=S)Nc1c(Cl)cccc1OC(F)F)C(C)(C)C (stereo not drawn) | active: 12.6 µM |  |
| O=C(COc1cccc2ccccc12)NNC(=O)c1cnccn1 | active: 12.6 µM |  |
| Cc1ccc(OCC(=O)N2CCc3ccccc32)cc1 |  | inactive: -18.4% |
| CCCCCC/C=N/Nc1nnc(Cc2ccc(OC)c(OC)c2)c(=O)[nH]1 | inconclusive: 11.2 µM [inhibitor, single point] |  |
| Cc1ccc(C(=O)N2CC(=O)Nc3ccc(F)cc3C2c2ccccc2)cc1[N+](=O)[O-] (stereo not drawn) | inconclusive: 17.8 µM [activator, partial curve] |  |
| O=C(NCC(=O)N1CCOCC1)OCc1ccccc1 |  | inactive: 12.4% |
| COc1ccc(NC(=S)NCc2ccccn2)cc1OC | inconclusive: 12.6 µM [inhibitor, single point] |  |
| Cc1ccc(N2C(S)=C(C#N)C(=O)NC23CCCCC3)cc1 | inconclusive: 31.6 µM [inhibitor, single point] |  |
| COc1ccc(N2CCN(c3oc(Cc4ccccc4)nc3C#N)CC2)cc1 | inconclusive: 11.2 µM [activator, partial curve] |  |
| Cc1ccc(C(C[N+](=O)[O-])Sc2ccc(N)cc2)cc1 (stereo not drawn) | active: 11.2 µM |  |
| Cc1onc(-c2c(Cl)cccc2Cl)c1C(=O)Nc1ccc(Cl)cn1 | inconclusive: 2.51 µM [activator, partial curve, poor fit] |  |
| CCN1C(=NCCOC)N[C@@H](c2cccc(C(F)(F)F)c2)C(C(=O)OC)=C1C | inconclusive: 35.5 µM [inhibitor, single point] |  |
| COc1ccc(C=C2C(=O)c3ccccc3C2=O)cc1O | inconclusive: 14.1 µM [inhibitor, single point] |  |
| O=C(NCCc1ccc(F)cc1)c1cc(=O)c2ccccc2o1 | inconclusive: 8.91 µM [activator, partial curve] |  |
| C/C(=N\S(=O)(=O)c1ccc(C)cc1)NC(=S)Nc1ccc(C)cc1 | inconclusive: 10 µM [inhibitor, partial curve, poor fit] |  |
| Nc1ccc(C(=O)NCCCSc2ccccc2)cc1[N+](=O)[O-] |  | inactive: 151% |
| O=C(NNc1ncnc2c1cnn2-c1ccc(F)cc1)c1cccs1 | active: 12.6 µM |  |
| CS(=O)(=O)N(CC(=O)N1CCN(c2cccc(Cl)c2)CC1)C1CCCCC1 |  | inactive: 2.37% |
| O=C(CNc1ccc(Cl)cc1)NNC(=S)NCc1ccccc1 | active: 10 µM |  |

Retrieved by compound from the list above:

| Compound | Potency | activity change, negative = inhibition |
| --- | --- | --- |
| Cc1ccc(N2C(S)=C(C#N)C(=O)NC23CCCCC3)cc1 | inconclusive: 31.6 µM [inhibitor, single point] |  |
| O=C(NCCc1ccc(F)cc1)c1cc(=O)c2ccccc2o1 | inconclusive: 8.91 µM [activator, partial curve] |  |
| Nc1ccc(C(=O)NCCCSc2ccccc2)cc1[N+](=O)[O-] |  | inactive: 151% |
| COc1ccc(C=C2C(=O)c3ccccc3C2=O)cc1O | inconclusive: 14.1 µM [inhibitor, single point] |  |
